Here are results for two compounds from ChEMBL document CHEMBL1287694, “The synthesis and SAR of novel diarylsulfone 11β-HSD1 inhibitors” (Bioorg Med Chem Lett, 2010).

Data set [1] is described as follows: in vivo. Conditions: rat, iv, 0.5 mg/kg.
Data set [2] can be described thus: in vivo. Conditions: rat, iv, 0.5 mg/kg. The source holds these as a separate data set.
Data set [3] is described as follows: in vivo. Conditions: dog, iv, 0.5 mg/kg.
The nature of data set [4]: in vivo. The conditions noted are these: dog, iv, 0.5 mg/kg. This is another data set of the same source.
The nature of data set [5]: in vivo. Conditions: cynomolgus monkey, iv, 0.5 mg/kg.
A short description of data set [6]: in vivo. The conditions noted are these: cynomolgus monkey, iv, 0.5 mg/kg. This is another data set of the same source.

Consider `C[C@](O)(c1ccc(S(=O)(=O)c2ccc(-c3ccc(C#N)cc3)cc2Cl)cc1)C(F)(F)F`, for which the Vd (as a rule, the apparent volume that relates the amount in the body to the concentration in plasma or blood) in “in vivo [1]” was 3 L/kg; in “in vivo [3]”, 1.7 L/kg; in “in vivo [5]” it was 1.4 L/kg. The MRT – broadly, the average time that molecules of a dose stay in the body – was 7.2 h in the data set “in vivo [2]”, 100 h in “in vivo [4]” and 6.5 h in “in vivo [6]”.

The compound `C[C@@H]1CN(CC2(C(N)=O)CC2)CCN1S(=O)(=O)c1ccc([C@](C)(O)C(F)(F)F)cc1` registered an MRT in “in vivo [2]” of 0.8 h.
